Test results: patent US10654896B2, “FoxP3-binding peptides and uses thereof” (FUNDACIÓN PARA LA INVESTIGACIÓN MÉDICA APLICADA, priority 2016, dated 2020)
Not every detail of the peptide structures is certain; ends, links or a residue may be inferred.

Biological target: T1, human FOXP3 (FOXP3-6His) (Homo sapiens, UniProt Q9BZS1)
T1 construct: 6xHis (C); made in house; host or cells: E. coli BL21 (DE3)
T1 sequence (Q9BZS1 1-431): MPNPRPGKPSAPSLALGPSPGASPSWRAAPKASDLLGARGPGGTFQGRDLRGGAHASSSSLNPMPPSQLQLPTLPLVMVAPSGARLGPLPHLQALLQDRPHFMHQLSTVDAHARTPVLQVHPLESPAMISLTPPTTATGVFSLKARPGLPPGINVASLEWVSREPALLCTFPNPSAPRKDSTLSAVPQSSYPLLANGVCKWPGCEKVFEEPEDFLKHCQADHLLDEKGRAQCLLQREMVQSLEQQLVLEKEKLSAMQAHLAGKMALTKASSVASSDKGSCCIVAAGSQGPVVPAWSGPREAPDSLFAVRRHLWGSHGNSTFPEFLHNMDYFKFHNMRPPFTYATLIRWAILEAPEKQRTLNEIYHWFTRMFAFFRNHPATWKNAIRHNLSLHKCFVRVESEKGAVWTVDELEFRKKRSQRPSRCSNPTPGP
Assay: Peptide binding to FOXP3 by surface plasmon resonance (SPR)
Conditions: peptides 1-20 μM; ratio to p60 (SEQ ID NO: 1)
Description: Plasmid pET20b FOXP3-His was generated to produce the human FOXP3 tagged with 6 histidines at the C terminus of the protein. Briefly, plasmid pDEST15-FOXP3 (provided by Dr. Casal, Madrid, Spain) was used as template to amplify FOXP3 by PCR using the primers Upper FOXP3 Ndel catatgcccaaccccaggc (SEQ ID NO: 55) and Lower FOXP3 […] (SEQ ID NO: 56). The resulting fragment was subcloned in pET20b at Ndel and NotI sites. pET45b His-Runx1 was obtained by PCR of activated human CD4 T cells obtained from healthy volunteers (after the signature of an informed consent) using the primers Upper Runx1 atgcgtatccccgtagatg (SEQ ID NO: 57) and Lower Runx1 […] (SEQ ID NO: 58) and the fragment was cloned in pcDNA3.1. Then, pET45b and pcDNA3.1-Runx1 were digested with BamHI and NotI and ligated to obtain pET45b-Runx1. Plasmids were used to transform BL21 cells (DE3; Novagen, Schwalbach, Germany) for the expression of the recombinant protein. The transformed BL21 cells were grown in LB medium at 37° C. (1 liter of final culture medium) (with ampicilin 0.1 mg/ml). Once the OD of the culture was between 0.5 and 1.0, IPTG (0.4 mM, final concentration) was added. […] The eluted proteins were desalted using Hitrap desalting columns (Pharmacia) and analyzed by SDS-PAGE using Coomassie blue (Bio-Safe Coomassie reagent; Bio-Rad, Hercules, Calif.) and by Western blot. […]

`CSCC[C@@H]1NC(=O)[C@H](C)NC(=O)[C@H](Cc2ccccc2)NC(=O)[C@H](Cc2ccccc2)NC(=O)[C@@H]2CCCN2C(=O)[C@H](Cc2c[nH]c3ccccc23)NC(=O)[C@H](CCSC)NC(=O)[C@H](CCCCN)NC(=O)[C@H](CCCNC(=N)N)NC(=O)[C@H](Cc2ccccc2)NC(=O)[C@H](C)NC(=O)[C@H](CCC(N)=O)NC(=O)[C@H](Cc2ccccc2)NC(=O)[C@@H](C)NC(=O)[C@H](CCCNC(=N)N)NCCNC(=O)CNC1=O` [compound 53] was tested, and the “Binding to Foxp3 Ratio binding Peptide/p60 (fold change)” value was 2.2 fold change.
